Not every detail of the peptide structures is certain; ends, links or a residue may be inferred. Ends that are not written are not given here.
Experiments:
Assay type in all cases: in vivo, C57BL/6 mice
[1] = Body weight and liver weight in experimental model of Nonalcoholic Steatohepatitis (HFD mice); settings: end of 6 weeks treatment, i.p. once daily 5 days a week, AnxA1 1 mg/kg/day, Test Item A 250 μg/kg/day
Procedure: (§1) Male C57BL/6 mice were housed (7-9/cage) in pathogen free conditions and maintained at constant room temperature (20-22° C.) with free access to water and food under a 12 h light/dark cycle (lights on at 07:00 h). […] This diet leads within 16 weeks to steatohepatitis associated with obesity and insulin resistance, which mimics what is seems in humans suffering from NASH. The control group received ad libitum normal chow for 16 weeks. The body weight for each mouse was recorded weekly by using a dedicated digital balance (each Friday afternoon—starting from 5 pm).
(§2) Mice were divided in experimental groups as below: • A: Non HFD: Time control group: Had access to standard chow diet throughout the study period • B: Vehicle: Vehicle treatment group: Received HFD+Vehicle treatment (sterile saline injections) once daily • C: AnxA1: AnnexinA1 treatment group: Received HFD+Annexin A1 full-length protein at a dose of 1 mg/kg/day. • D: Test Item A: Test compound A group: Received HDF+250 μg/kg/day of Test compound A=[…] (SEQ ID NO:4); (AnxA1 (2-46 Val24Leu).
Treatment was commended following 10 weeks HFD and was given as a once daily intraperitoneal given 5 days a week (Monday-Friday) for 6 weeks. The animals were kept on HFD during the 6 weeks treatment period. […]

[2] = Liver injury assessment: blood levels of alanine aminotransferase (ALT) in HFD NASH model; settings: HFD mice, after 6 weeks treatment, i.p.; AnxA1 1 mg/kg/day, Test Item A 250 μg/kg/day
Procedure: as §1
Liver injury was assessed before and after treatment with test compound, control compound or vehicle by evaluating blood levels of alanine aminotransferase (ALT) with a spectrophotometric kit. Blood sampling was carried out by retro-orbital bleeding.
as §2, with “Val24Leu). […]” for “Val24Leu).”

[3] = tested on: TNF-α; test: Low grade inflammation: liver expression level of TNF-α by real time PCR in HFD NASH model; settings: HFD mice
Procedure: as §1
Low inflammation in the livers was determined by the expression level of TNF-α measured by real time PCR using a commercial available tracer.
as §2
Treatment was commended following 10 weeks HFD and was given as a once daily intraperitoneal given 5 days a week (Monday-Friday) for 6 weeks. […]

[4] = Glucose tolerance test (GTT) in HFD NASH model; settings: HFD mice
[5] = Test Item A 250 μg/kg/day vs AnxA1 1 mg/kg/day

## AMVSEFLKQAWFIENEEQEYVQTLKSSKGGPGSAVSPYPTFNPSS [Test Item A]
[1]
  Bodyweight, mean value per group: 33 g
  Liver Weight, mean value per group: 2.2 g
[2]
  ALT (blood alanine aminotransferase): 82 u/L
[3]; [5]
  level of TNF-α expression lower than in the group treated with AnxA1 protein (Grp C): 41%
[3]; real time PCR, AnxA1 1 mg/kg/day, Test Item A 250 μg/kg/day
  Relative expression levels of TNF-α with the mean expression in group B (vehicle) set to 1: 0.70±0.17
[4]; Test Item A 250 μg/kg/day
  OGTT AUC 0-120 min, % higher than the AUC in the time control (Grp A, standard low fat diet): 13%
  OGTT AUC 0-120 min as % of the AUC in group B (vehicle): 65%
[4]; Test Item A 250 μg/kg/day i.p., glucose 1.5 g/kg, 0-120 min
  glucose homeostasis in glucose tolerance test versus Vehicle and AnxA1 protein groups: markedly better glucose homeostasis
[4]; [5]
  OGTT AUC 0-120 min, % lower than in group C (AnxA1 protein): 21%

Reference: patent US20230295255A1, “ANNEXIN A1-DERIVED POLYPEPTIDE ANALOGUES” (Reso Ther Pharma A/S, priority 2020, published 2023)
